Measured values from paper PMC4849471.
These are yes or no findings as the source states them, for the method shown. In cells and extracts the contact can be indirect. Some results given as binding are weak or reduced against the parent protein; the word gives no strength.

Protein sequences, listed by entry. Tags and fused reporters are not part of them.
UniProt P16520: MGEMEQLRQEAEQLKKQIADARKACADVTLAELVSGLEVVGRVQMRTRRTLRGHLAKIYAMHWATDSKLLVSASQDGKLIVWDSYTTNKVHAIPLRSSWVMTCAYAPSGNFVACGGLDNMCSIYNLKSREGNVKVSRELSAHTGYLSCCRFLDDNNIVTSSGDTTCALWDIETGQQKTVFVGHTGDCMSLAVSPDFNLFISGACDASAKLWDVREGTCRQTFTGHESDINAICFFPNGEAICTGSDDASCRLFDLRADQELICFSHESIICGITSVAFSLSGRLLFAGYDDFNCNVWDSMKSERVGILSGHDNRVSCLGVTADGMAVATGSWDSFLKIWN
UniProt P25098: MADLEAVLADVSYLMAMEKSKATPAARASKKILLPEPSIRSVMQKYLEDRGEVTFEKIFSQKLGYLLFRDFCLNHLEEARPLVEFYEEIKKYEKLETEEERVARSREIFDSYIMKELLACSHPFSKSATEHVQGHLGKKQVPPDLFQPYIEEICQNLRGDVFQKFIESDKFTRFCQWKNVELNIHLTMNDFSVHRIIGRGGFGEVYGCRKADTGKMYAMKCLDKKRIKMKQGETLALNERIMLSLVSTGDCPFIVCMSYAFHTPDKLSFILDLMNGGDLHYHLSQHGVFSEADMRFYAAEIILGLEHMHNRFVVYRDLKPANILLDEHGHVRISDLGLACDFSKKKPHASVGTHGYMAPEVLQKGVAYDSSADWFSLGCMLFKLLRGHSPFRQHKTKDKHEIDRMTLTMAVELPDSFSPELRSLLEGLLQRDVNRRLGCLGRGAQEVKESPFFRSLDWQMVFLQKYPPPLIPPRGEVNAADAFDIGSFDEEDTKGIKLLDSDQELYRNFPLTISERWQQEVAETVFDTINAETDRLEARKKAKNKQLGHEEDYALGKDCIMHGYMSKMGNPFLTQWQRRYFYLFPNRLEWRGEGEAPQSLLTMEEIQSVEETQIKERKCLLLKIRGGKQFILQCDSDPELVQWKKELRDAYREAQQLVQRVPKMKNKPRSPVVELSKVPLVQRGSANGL
UniProt Q16531: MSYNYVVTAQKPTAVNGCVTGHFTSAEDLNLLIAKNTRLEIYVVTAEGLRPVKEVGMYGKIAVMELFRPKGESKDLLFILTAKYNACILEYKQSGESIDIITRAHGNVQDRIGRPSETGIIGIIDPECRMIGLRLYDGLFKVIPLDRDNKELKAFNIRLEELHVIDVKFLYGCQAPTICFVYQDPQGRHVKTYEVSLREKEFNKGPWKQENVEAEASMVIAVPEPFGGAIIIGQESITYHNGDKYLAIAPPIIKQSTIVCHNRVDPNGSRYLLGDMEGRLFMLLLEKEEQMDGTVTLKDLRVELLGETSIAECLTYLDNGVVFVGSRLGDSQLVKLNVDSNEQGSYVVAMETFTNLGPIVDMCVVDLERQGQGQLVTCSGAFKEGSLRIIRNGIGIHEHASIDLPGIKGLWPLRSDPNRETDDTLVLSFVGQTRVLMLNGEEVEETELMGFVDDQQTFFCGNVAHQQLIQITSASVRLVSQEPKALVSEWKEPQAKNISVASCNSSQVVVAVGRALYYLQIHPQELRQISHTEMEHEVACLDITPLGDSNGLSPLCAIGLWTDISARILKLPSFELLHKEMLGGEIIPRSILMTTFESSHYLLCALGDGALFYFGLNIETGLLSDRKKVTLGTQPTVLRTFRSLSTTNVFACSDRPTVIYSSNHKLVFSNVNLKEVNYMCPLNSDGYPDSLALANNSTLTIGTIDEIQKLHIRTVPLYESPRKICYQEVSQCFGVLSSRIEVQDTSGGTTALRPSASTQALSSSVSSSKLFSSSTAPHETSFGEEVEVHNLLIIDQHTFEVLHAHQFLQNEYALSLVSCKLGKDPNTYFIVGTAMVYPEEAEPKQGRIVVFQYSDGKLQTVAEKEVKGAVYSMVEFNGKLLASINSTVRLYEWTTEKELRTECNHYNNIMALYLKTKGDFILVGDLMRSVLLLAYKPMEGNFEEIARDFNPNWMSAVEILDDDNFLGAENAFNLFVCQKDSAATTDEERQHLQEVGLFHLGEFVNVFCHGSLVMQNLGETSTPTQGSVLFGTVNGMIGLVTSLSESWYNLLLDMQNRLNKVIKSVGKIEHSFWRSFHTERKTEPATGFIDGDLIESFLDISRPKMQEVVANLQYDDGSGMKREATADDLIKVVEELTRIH
UniProt Q13619: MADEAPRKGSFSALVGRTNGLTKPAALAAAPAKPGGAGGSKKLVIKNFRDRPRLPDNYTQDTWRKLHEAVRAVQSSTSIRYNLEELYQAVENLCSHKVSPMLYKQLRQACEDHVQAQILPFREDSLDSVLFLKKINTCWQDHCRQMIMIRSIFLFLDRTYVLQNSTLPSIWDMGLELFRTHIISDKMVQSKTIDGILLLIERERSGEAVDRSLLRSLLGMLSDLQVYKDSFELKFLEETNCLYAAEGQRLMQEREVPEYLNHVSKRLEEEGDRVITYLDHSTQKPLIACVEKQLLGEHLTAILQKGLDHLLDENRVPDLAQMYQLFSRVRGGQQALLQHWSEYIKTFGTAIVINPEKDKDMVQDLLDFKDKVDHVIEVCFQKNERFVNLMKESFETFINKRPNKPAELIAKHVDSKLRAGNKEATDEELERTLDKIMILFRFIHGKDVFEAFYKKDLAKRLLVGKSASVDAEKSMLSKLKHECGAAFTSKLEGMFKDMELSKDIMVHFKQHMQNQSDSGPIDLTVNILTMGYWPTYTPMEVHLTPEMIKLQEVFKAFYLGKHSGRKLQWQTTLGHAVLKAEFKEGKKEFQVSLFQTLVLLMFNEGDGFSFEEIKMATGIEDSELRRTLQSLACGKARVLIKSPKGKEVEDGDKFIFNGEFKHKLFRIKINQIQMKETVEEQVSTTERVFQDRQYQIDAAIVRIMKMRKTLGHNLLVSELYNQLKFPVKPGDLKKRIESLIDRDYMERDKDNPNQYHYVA

What was measured:
[1] = target: Flag-tagged Gβ3 (G-protein beta 3 subunit, wild type) (human) (UniProt P16520); assay: co-IP; HEK293 cells transfected with plasmids for GRK2 and Gβ3 or Gβ3s (Figure 2a)
[2] = target: Flag-tagged Gβ3 (G-protein beta 3 subunit, wild type) (human) (UniProt P16520); assay: co-IP; HEK293 cells transfected with Flag-Gβ3 or Flag-Gβ3s; endogenous CUL4A and DDB1 detected; also after isoproterenol (10 μM) for different lengths of time, which reduced the association (Figures 1d, 1f)
[3] = target: Flag-tagged Gβ3 (G-protein beta 3 subunit, wild type) (human) (UniProt P16520); assay: co-IP; HEK293 cells co-transfected with MYC-tagged CUL4A and Flag-tagged Gβ3 or Gβ3s (Figure 1e)

binding [1]	binding [2]	binding [3]	Substance
binds	–	–	GRK2 (G-protein-coupled receptor kinase 2) (from UniProt P25098 1-689) (enzyme)
–	binds	binds	endogenous DDB1 of HEK293 cells (from UniProt Q16531 1-1140)
–	binds	–	endogenous CUL4A of HEK293 cells (from UniProt Q13619 1-759)
–	–	binds	MYC-tagged CUL4A (from UniProt Q13619 1-759)
